Data as given in PubChem BioAssay AID1508597 (Cure First, 2020).
Purpose: 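Knock-downs altering ovarian cancer cell survival with or without PARP inhibitor rucaparib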 (primary screen). Cell system: human ovarian carcinoma lines grown from tumours: OCI-P5x (papillary serous) and OCI-C5x (clear cell). Knock-down reagent: siRNA pool against human genes, 1.25 pmol siRNA per well. Time to read-out: 72 h or 96 h, depending on the cell culture. Treatment: rucaparib 20 µM (about IC30) or vehicle, present until read-out. Measurement: 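ATP luminescence measured at 72 or 96 h according to the culture, then normalised and expressed as percent viability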. Reading the numbers: viability, normalised: higher = more viable cells remaining. Rule for the call: 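a well counts as a hit if its normalised viability is under 80 percent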. Meaning of the calls: active = viability under 80%; inactive = viability 80% or more.
Here is a random part of about 2,100 reagents. 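Calls flag viability under 80% in either arm, not effects specific to rucaparib; the reference for percent is not stated.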 Entries without a mark were called inactive. A reagent listed more than once was tested more than once; the source does not tell the runs apart. Not given: the 100% reference.

gene symbol | rucaparib or vehicle | cell line | technical replicate | viability, normalised (%)
EIF4A3 (GeneID 9775) | Rucaparib | OCI-C5x (clear cell) | 1 | 15.2 (active)
EIF4A3 (GeneID 9775) | Rucaparib | OCI-C5x (clear cell) | 2 | 16.9 (active)
EIF4A3 (GeneID 9775) | Rucaparib | OCI-C5x (clear cell) | 3 | 17.3 (active)
EIF4A3 (GeneID 9775) | Rucaparib | OCI-P5x (serous) | 1 | 39.5 (active)
EIF4A3 (GeneID 9775) | Rucaparib | OCI-P5x (serous) | 2 | 48 (active)
EIF4A3 (GeneID 9775) | Rucaparib | OCI-P5x (serous) | 3 | 47.9 (active)
EIF4A3 (GeneID 9775) | Vehicle | OCI-C5x (clear cell) | 1 | 19.1 (active)
EIF4A3 (GeneID 9775) | Vehicle | OCI-C5x (clear cell) | 2 | 20.2 (active)
EIF4A3 (GeneID 9775) | Vehicle | OCI-C5x (clear cell) | 3 | 20.9 (active)
EIF4A3 (GeneID 9775) | Vehicle | OCI-P5x (serous) | 1 | 24.6 (active)
EIF4A3 (GeneID 9775) | Vehicle | OCI-P5x (serous) | 2 | 25 (active)
EIF4A3 (GeneID 9775) | Vehicle | OCI-P5x (serous) | 3 | 29.8 (active)
TAF1L (GeneID 138474) | Rucaparib | OCI-C5x (clear cell) | 1 | 61.1 (active)
TAF1L (GeneID 138474) | Rucaparib | OCI-C5x (clear cell) | 1 | 44.1 (active)
TAF1L (GeneID 138474) | Rucaparib | OCI-C5x (clear cell) | 2 | 40.3 (active)
TAF1L (GeneID 138474) | Rucaparib | OCI-C5x (clear cell) | 2 | 60 (active)
TAF1L (GeneID 138474) | Rucaparib | OCI-C5x (clear cell) | 3 | 51.1 (active)
TAF1L (GeneID 138474) | Rucaparib | OCI-C5x (clear cell) | 3 | 33.8 (active)
TAF1L (GeneID 138474) | Rucaparib | OCI-P5x (serous) | 1 | 85.4
TAF1L (GeneID 138474) | Rucaparib | OCI-P5x (serous) | 1 | 65.2 (active)
TAF1L (GeneID 138474) | Rucaparib | OCI-P5x (serous) | 2 | 56.1 (active)
TAF1L (GeneID 138474) | Rucaparib | OCI-P5x (serous) | 2 | 79.2 (active)
TAF1L (GeneID 138474) | Rucaparib | OCI-P5x (serous) | 3 | 79.9 (active)
TAF1L (GeneID 138474) | Rucaparib | OCI-P5x (serous) | 3 | 55.1 (active)
TAF1L (GeneID 138474) | Vehicle | OCI-C5x (clear cell) | 1 | 64.6 (active)
TAF1L (GeneID 138474) | Vehicle | OCI-C5x (clear cell) | 1 | 43.4 (active)
TAF1L (GeneID 138474) | Vehicle | OCI-C5x (clear cell) | 2 | 49.4 (active)
TAF1L (GeneID 138474) | Vehicle | OCI-C5x (clear cell) | 2 | 55.5 (active)
TAF1L (GeneID 138474) | Vehicle | OCI-C5x (clear cell) | 3 | 43.2 (active)
TAF1L (GeneID 138474) | Vehicle | OCI-C5x (clear cell) | 3 | 49.8 (active)
TAF1L (GeneID 138474) | Vehicle | OCI-P5x (serous) | 1 | 78 (active)
TAF1L (GeneID 138474) | Vehicle | OCI-P5x (serous) | 1 | 72.9 (active)
TAF1L (GeneID 138474) | Vehicle | OCI-P5x (serous) | 2 | 80.9
TAF1L (GeneID 138474) | Vehicle | OCI-P5x (serous) | 2 | 77.2 (active)
TAF1L (GeneID 138474) | Vehicle | OCI-P5x (serous) | 3 | 81.2
TAF1L (GeneID 138474) | Vehicle | OCI-P5x (serous) | 3 | 69.6 (active)
WIZ (GeneID 58525) | Rucaparib | OCI-C5x (clear cell) | 1 | 72 (active)
WIZ (GeneID 58525) | Rucaparib | OCI-C5x (clear cell) | 2 | 48.1 (active)
WIZ (GeneID 58525) | Rucaparib | OCI-C5x (clear cell) | 3 | 48.1 (active)
WIZ (GeneID 58525) | Rucaparib | OCI-P5x (serous) | 1 | 69.1 (active)
WIZ (GeneID 58525) | Rucaparib | OCI-P5x (serous) | 2 | 55.6 (active)
WIZ (GeneID 58525) | Rucaparib | OCI-P5x (serous) | 3 | 62.6 (active)
WIZ (GeneID 58525) | Vehicle | OCI-C5x (clear cell) | 1 | 53.7 (active)
WIZ (GeneID 58525) | Vehicle | OCI-C5x (clear cell) | 2 | 70.3 (active)
WIZ (GeneID 58525) | Vehicle | OCI-C5x (clear cell) | 3 | 57.9 (active)
WIZ (GeneID 58525) | Vehicle | OCI-P5x (serous) | 1 | 57.4 (active)
WIZ (GeneID 58525) | Vehicle | OCI-P5x (serous) | 2 | 79.7 (active)
WIZ (GeneID 58525) | Vehicle | OCI-P5x (serous) | 3 | 55.9 (active)
PI4KA (GeneID 5297) | Rucaparib | OCI-C5x (clear cell) | 1 | 55.6 (active)
PI4KA (GeneID 5297) | Rucaparib | OCI-C5x (clear cell) | 2 | 59 (active)
PI4KA (GeneID 5297) | Rucaparib | OCI-C5x (clear cell) | 3 | 65.3 (active)
PI4KA (GeneID 5297) | Rucaparib | OCI-P5x (serous) | 1 | 98.2
PI4KA (GeneID 5297) | Rucaparib | OCI-P5x (serous) | 2 | 103
PI4KA (GeneID 5297) | Rucaparib | OCI-P5x (serous) | 3 | 103
PI4KA (GeneID 5297) | Vehicle | OCI-C5x (clear cell) | 1 | 74.1 (active)
PI4KA (GeneID 5297) | Vehicle | OCI-C5x (clear cell) | 2 | 60.5 (active)
PI4KA (GeneID 5297) | Vehicle | OCI-C5x (clear cell) | 3 | 64.7 (active)
PI4KA (GeneID 5297) | Vehicle | OCI-P5x (serous) | 1 | 107
PI4KA (GeneID 5297) | Vehicle | OCI-P5x (serous) | 2 | 122
PI4KA (GeneID 5297) | Vehicle | OCI-P5x (serous) | 3 | 113

9 entries already listed, sorted by “viability, normalised (%)”, low to high.
gene symbol | rucaparib or vehicle | cell line | technical replicate | viability, normalised (%)
EIF4A3 (GeneID 9775) | Rucaparib | OCI-C5x (clear cell) | 3 | 17.3 (active)
EIF4A3 (GeneID 9775) | Vehicle | OCI-C5x (clear cell) | 1 | 19.1 (active)
EIF4A3 (GeneID 9775) | Vehicle | OCI-C5x (clear cell) | 2 | 20.2 (active)
EIF4A3 (GeneID 9775) | Vehicle | OCI-C5x (clear cell) | 3 | 20.9 (active)
EIF4A3 (GeneID 9775) | Vehicle | OCI-P5x (serous) | 1 | 24.6 (active)
EIF4A3 (GeneID 9775) | Vehicle | OCI-P5x (serous) | 2 | 25 (active)
EIF4A3 (GeneID 9775) | Rucaparib | OCI-P5x (serous) | 1 | 39.5 (active)
EIF4A3 (GeneID 9775) | Rucaparib | OCI-P5x (serous) | 3 | 47.9 (active)
EIF4A3 (GeneID 9775) | Rucaparib | OCI-P5x (serous) | 2 | 48 (active)
